{"source": "PubChem BioAssay AID1259308 (NCATS, 2017)", "aim": "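Knock-downs that increase output of a recombinant reporter protein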 (primary screen)", "cells": "human HEK293 embryonic kidney cells stably expressing firefly luciferase (HEK-CMV-Luc2-Hygro)", "reagent": "single siRNA against human genes, 0.8 pmol siRNA per well", "time to read-out": "72 h", "measured": "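Luciferase light (ONE-Glo) measured on one replicate plate set and viability (CellTiter-Glo) on the other, scaled to a negative control siRNA, with robust z-scores and luciferase per cell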", "direction": "total luciferase, z-score: higher = more reporter protein produced", "rule for the call": "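An siRNA counts as active if its total luciferase robust z-score exceeds 3; genes with two or more such siRNAs out of three were retested with fresh siRNAs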", "calls": "active = raised luciferase; inactive = no rise", "note": "This is one part, drawn at random, of about 59,000 reagents. About 1,510 of them (2.6%) were called active. 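Calls use total luciferase alone and ignore viability, so some active siRNAs may act by altering cell number.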 Entries without a mark were called inactive. Not all columns of the deposit are shown."}
The first 2 records, ahead of the listing:
{"gene":"PSMD1 (proteasome 26S subunit, non-ATPase 1)","PubChem SID":"SID160715229","total luciferase, z-score":-0.606}
{"gene":"PSMD1 (proteasome 26S subunit, non-ATPase 1)","PubChem SID":"SID160715230","total luciferase, z-score":-0.17}

The list itself, from the start:
{"gene":"PSMD1 (proteasome 26S subunit, non-ATPase 1)","PubChem SID":"SID160715229","total luciferase, z-score":-0.606}
{"gene":"PSMD1 (proteasome 26S subunit, non-ATPase 1)","PubChem SID":"SID160715230","total luciferase, z-score":-0.17}
{"gene":"PSMD1 (proteasome 26S subunit, non-ATPase 1)","PubChem SID":"SID160715231","total luciferase, z-score":-0.793}
{"gene":"PIGYP1 (PIGY pseudogene 1)","PubChem SID":"SID160733436","total luciferase, z-score":-0.723}
{"gene":"PIGYP1 (PIGY pseudogene 1)","PubChem SID":"SID160768124","total luciferase, z-score":0.625}
{"gene":"PIGYP1 (PIGY pseudogene 1)","PubChem SID":"SID160768125","total luciferase, z-score":1.26}
{"gene":"SPHKAP (SPHK1 interactor, AKAP domain containing)","PubChem SID":"SID160750347","total luciferase, z-score":-2.11}
{"gene":"SPHKAP (SPHK1 interactor, AKAP domain containing)","PubChem SID":"SID160750348","total luciferase, z-score":0.616}
{"gene":"SPHKAP (SPHK1 interactor, AKAP domain containing)","PubChem SID":"SID160750349","total luciferase, z-score":0.81}
{"gene":"ZHX3 (zinc fingers and homeoboxes 3)","PubChem SID":"SID160735330","total luciferase, z-score":2.15}
{"gene":"ZHX3 (zinc fingers and homeoboxes 3)","PubChem SID":"SID160735331","total luciferase, z-score":1.51}
{"gene":"ZHX3 (zinc fingers and homeoboxes 3)","PubChem SID":"SID160735332","total luciferase, z-score":0.323}
{"gene":"USP53 (ubiquitin specific peptidase 53)","PubChem SID":"SID160741866","total luciferase, z-score":0.109}
{"gene":"USP53 (ubiquitin specific peptidase 53)","PubChem SID":"SID160741867","total luciferase, z-score":-0.374}
{"gene":"USP53 (ubiquitin specific peptidase 53)","PubChem SID":"SID160741868","total luciferase, z-score":-0.119}
{"gene":"TMEM115 (transmembrane protein 115)","PubChem SID":"SID160729875","total luciferase, z-score":"3.14 (active)"}
{"gene":"TMEM115 (transmembrane protein 115)","PubChem SID":"SID160729876","total luciferase, z-score":-0.159}
{"gene":"TMEM115 (transmembrane protein 115)","PubChem SID":"SID160729877","total luciferase, z-score":0.118}
{"gene":"DAGLB (diacylglycerol lipase beta)","PubChem SID":"SID160761791","total luciferase, z-score":0.247}
{"gene":"DAGLB (diacylglycerol lipase beta)","PubChem SID":"SID160761792","total luciferase, z-score":-1.36}
{"gene":"DAGLB (diacylglycerol lipase beta)","PubChem SID":"SID160761793","total luciferase, z-score":-2.62}
{"gene":"GLRB (glycine receptor beta)","PubChem SID":"SID160771558","total luciferase, z-score":-0.581}
{"gene":"GLRB (glycine receptor beta)","PubChem SID":"SID160771567","total luciferase, z-score":0.607}
{"gene":"GLRB (glycine receptor beta)","PubChem SID":"SID160771575","total luciferase, z-score":-0.388}
{"gene":"ADAM22 (ADAM metallopeptidase domain 22)","PubChem SID":"SID160741436","total luciferase, z-score":2.33}
{"gene":"ADAM22 (ADAM metallopeptidase domain 22)","PubChem SID":"SID160741438","total luciferase, z-score":-0.267}
{"gene":"ADAM22 (ADAM metallopeptidase domain 22)","PubChem SID":"SID160741439","total luciferase, z-score":0.245}
{"gene":"AWAT2 (acyl-CoA wax alcohol acyltransferase 2)","PubChem SID":"SID160759702","total luciferase, z-score":0.398}
{"gene":"AWAT2 (acyl-CoA wax alcohol acyltransferase 2)","PubChem SID":"SID160759703","total luciferase, z-score":1.77}
{"gene":"AWAT2 (acyl-CoA wax alcohol acyltransferase 2)","PubChem SID":"SID160759704","total luciferase, z-score":0.448}
{"gene":"MUC1 (mucin 1, cell surface associated)","PubChem SID":"SID160777562","total luciferase, z-score":0.865}
{"gene":"MUC1 (mucin 1, cell surface associated)","PubChem SID":"SID160777563","total luciferase, z-score":0.113}
{"gene":"MUC1 (mucin 1, cell surface associated)","PubChem SID":"SID160777564","total luciferase, z-score":0.545}
